Results reported in article PMC7862473.
No constants are given. Whether binding was seen depends on the method and setting. In cells and extracts the contact can be indirect. A yes stands for co-enrichment or nearness to the bait. Other partners may have been found.

Sequences of proteins named here, by UniProt entry; tags and fusion partners are left off.
UniProt Q9H4G0: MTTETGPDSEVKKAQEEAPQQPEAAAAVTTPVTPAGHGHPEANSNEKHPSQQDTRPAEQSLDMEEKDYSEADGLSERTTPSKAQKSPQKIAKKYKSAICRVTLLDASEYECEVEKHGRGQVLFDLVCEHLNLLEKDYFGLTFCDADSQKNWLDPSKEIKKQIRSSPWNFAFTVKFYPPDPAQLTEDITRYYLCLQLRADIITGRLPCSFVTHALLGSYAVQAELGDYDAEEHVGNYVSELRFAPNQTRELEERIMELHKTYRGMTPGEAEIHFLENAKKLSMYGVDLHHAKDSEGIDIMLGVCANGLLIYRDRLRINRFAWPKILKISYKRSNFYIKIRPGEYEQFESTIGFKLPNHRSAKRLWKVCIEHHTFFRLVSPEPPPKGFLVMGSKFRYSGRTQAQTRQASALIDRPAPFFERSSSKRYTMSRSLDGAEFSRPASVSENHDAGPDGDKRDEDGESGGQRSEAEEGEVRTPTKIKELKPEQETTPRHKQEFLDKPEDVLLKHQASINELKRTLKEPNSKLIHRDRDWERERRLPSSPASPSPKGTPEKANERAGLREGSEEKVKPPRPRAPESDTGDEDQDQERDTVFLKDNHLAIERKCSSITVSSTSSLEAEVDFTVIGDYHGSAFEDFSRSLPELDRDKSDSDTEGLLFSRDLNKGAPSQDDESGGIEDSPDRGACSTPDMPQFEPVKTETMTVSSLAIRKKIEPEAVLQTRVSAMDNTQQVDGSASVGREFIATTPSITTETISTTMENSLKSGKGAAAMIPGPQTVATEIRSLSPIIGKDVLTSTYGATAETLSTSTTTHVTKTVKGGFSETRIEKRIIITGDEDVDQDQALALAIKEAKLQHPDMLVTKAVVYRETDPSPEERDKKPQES
UniProt P63104: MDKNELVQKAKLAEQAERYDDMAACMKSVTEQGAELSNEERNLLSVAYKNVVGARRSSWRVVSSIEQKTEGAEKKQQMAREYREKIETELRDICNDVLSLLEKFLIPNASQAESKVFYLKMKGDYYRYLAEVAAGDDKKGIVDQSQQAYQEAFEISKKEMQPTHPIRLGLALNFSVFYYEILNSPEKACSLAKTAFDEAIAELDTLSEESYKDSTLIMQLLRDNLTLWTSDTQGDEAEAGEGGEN

B1: 14-3-3γ (protein, UniProt P61981 1-247)
chain: MVDREQLVQKARLAEQAERYDDMAAAMKNVTELNEPLSNEERNLLSVAYKNVVGARRSSWRVISSIEQKTSADGNEKKIEMVRAYREKIEKELEAVCQDVLSLLDNYLIKNCSETQYESKVFYLKMKGDYYRYLAEVATGEKRATVVESSEKAYSEAHEISKEHMQPTHPIRLGLALNYSVFYYEIQNAPEQACHLAKTAFDDAIAELDTLNEDSYKDSTLIMQLLRDNLTLWTSDQQDDDGGEGNN
B2: 14-3-3η (protein, UniProt Q04917 1-246)
chain: MGDREQLLQRARLAEQAERYDDMASAMKAVTELNEPLSNEDRNLLSVAYKNVVGARRSSWRVISSIEQKTMADGNEKKLEKVKAYREKIEKELETVCNDVLSLLDKFLIKNCNDFQYESKVFYLKMKGDYYRYLAEVASGEKKNSVVEASEAAYKEAFEISKEQMQPTHPIRLGLALNFSVFYYEIQNAPEQACLLAKQAFDDAIAELDTLNEDSYKDSTLIMQLLRDNLTLWTSDQQDEEAGEGN

Target: 4.1N expressed from EPB41L1-pEGFP in A2780 OE cells (human) (UniProt Q9H4G0)
Test: affinity purification with mass spectrometry; Co-IP with anti-GFP antibody from A2780 OE versus A2780 WT lysates, on-bead crosslinking, LC-MS/MS

Molecule | binding
14-3-3ζ (from UniProt P63104 1-245) | binds
B1 | binds
B2 | binds
